Results reported in PubChem BioAssay AID192 (DTP/NCI, 2004).
The list does not hold the whole screen: it gathers tests that were run many times, whatever their T/C, doses with no T/C, and many T/C values between a quarter and a half above the control. Other doses and runs of a compound stand elsewhere. T/C is the treated group as % of the vehicle group. Some doses have a count of surviving animals in place of a T/C: the source holds a T/C of zero for them, seemingly a mark for toxic or unscored doses. Some doses without a T/C left all or most animals alive at the check, yet need not have been tolerated: survival well below the control is almost never listed, so the zero probably covers shortened survival too. Survivors were counted at the toxicity check, usually on the fifth day, unless a day is given; later deaths do not show. Schedule codes are those of the source, read here as Q, the interval in days (D) or hours (H), X, the number of doses. Some entries hold several experiments; the values are given in rising order. For survival time, the PubChem record calls one and a half times the control and up active, and a quarter to a half above the control has no call in these data; cut-offs in other NCI protocols can differ. Some T/C values are followed by the survivors on the day toxicity was checked, most often the fifth; without a count, all were alive then.

Tested on: BDF1 mice, B16 melanoma ip, median survival T/C
Test: NCI In Vivo Anticancer Drug Screen. Data for tumor model B16 Melanoma (intraperitoneal) in B6D2F1 (BDF1) mice
Details: T/C endpoint: median survival time, higher T/C = longer survival
Outline: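 In this screen, activity was judged from survival or tumor size in treated versus vehicle-treated tumor-bearing mice, reported as T/C.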

[1] = dose: 50.0 mg/kg/injection, schedule: Q01DX009 (ip), vehicle: Klucel (hydroxypropylcellulose) (HPC)
[2] = dose: 100.0 mg/kg/injection, schedule: Q01DX009 (ip), vehicle: Klucel (hydroxypropylcellulose) (HPC)
[3] = dose: 400.0 mg/kg/injection, schedule: Q01DX009 (ip), vehicle: saline
[4] = dose: 400.0 mg/kg/injection, schedule: Q01DX009 (ip), vehicle: Klucel (hydroxypropylcellulose) (HPC)
[5] = dose: 50.0 mg/kg/injection, schedule: Q01DX009 (ip), vehicle: saline with Tween-80
[6] = dose: 12.5 mg/kg/injection, schedule: Q01DX009 (ip), vehicle: Klucel (hydroxypropylcellulose) (HPC)
[7] = dose: 25.0 mg/kg/injection, schedule: Q01DX009 (ip), vehicle: Klucel (hydroxypropylcellulose) (HPC)
[8] = dose: 200.0 mg/kg/injection, schedule: Q01DX009 (ip), vehicle: saline with Tween-80
[9] = dose: 400.0 mg/kg/injection, schedule: Q01DX009 (ip), vehicle: saline with Tween-80
[10] = dose: 25.0 mg/kg/injection, schedule: Q01DX009 (ip), vehicle: saline
[11] = dose: 200.0 mg/kg/injection, schedule: Q01DX009 (ip), vehicle: Klucel (hydroxypropylcellulose) (HPC)
[12] = dose: 100.0 mg/kg/injection, schedule: Q01DX009 (ip), vehicle: saline with Tween-80
[13] = dose: 100.0 mg/kg/injection, schedule: Q01DX009 (ip), vehicle: saline
[14] = dose: 25.0 mg/kg/injection, schedule: Q01DX009 (ip), vehicle: saline with Tween-80
[15] = dose: 6.25 mg/kg/injection, schedule: Q01DX009 (ip), vehicle: Klucel (hydroxypropylcellulose) (HPC)
[16] = dose: 50.0 mg/kg/injection, schedule: Q01DX009 (ip), vehicle: saline

With `O=[N+]([O-])CC1(O)CCCCC1` the survivor count [1] was 7 of 10.

`c1ccc([B-]2([C+]3CCCCC3)N3CCCCC3C3CCCCN32)cc1` (configuration not stated) was tested, and the survivor count [1] was 5 of 10 and the survivor count [2] was 1 of 10.

With `COC(=O)[C@@H]1c2cc3c(c(O)c2[C@@H](OC2OC(C)C(OC)C(C)(OC)C2OC)C[C@]1(C)O)C(=O)c1c(O)cc2c(c1C3=O)O[C@H]1O[C@]2(C)[C@H](O)[C@@H](N(C)C)[C@@H]1O` (some centres not stated) the T/C (dose: 125.0 micrograms/kg/injection, schedule: Q01DX009 (ip), vehicle: other) was 138 % of control, the T/C (dose: 648.0 micrograms/kg/injection, schedule: Q04DX003 (ip), vehicle: lactic acid) was 131 % of control and the survivor count (dose: 1000.0 micrograms/kg/injection, schedule: Q01DX009 (ip), vehicle: other) was 8 of 10. For the same compound, the survivor count (dose: 1800.0 micrograms/kg/injection, schedule: Q04DX003 (ip), vehicle: lactic acid) was 10 of 10, the survivor count (dose: 2000.0 micrograms/kg/injection, schedule: Q01DX009 (ip), vehicle: other) was 9 of 10 and the survivor count (dose: 3000.0 micrograms/kg/injection, schedule: Q04DX003 (ip), vehicle: lactic acid) was 9 of 10 and 10 of 10.

In the case of `O=C1CN(CN2CCOCC2)C(=O)CN1CN1CCOCC1`, the survivor count [3] was 10 of 10.

With `Cc1ccc(N2CSC(=S)N(c3ccc(C)cc3)C2)cc1` the survivor count [4] was 10 of 10.

In the case of `COc1cccc2c1C(=O)c1c(O)c3c(c(O)c1C2=O)C[C@@](O)(/C(C)=N/NC(=O)c1ccc(S(N)(=O)=O)cc1)C[C@@H]3OC1CC(N)C(O)C(C)O1` (some centres not stated), the T/C (dose: 0.78 mg/kg/injection, schedule: Q01DX009 (ip), vehicle: water) was 141 % of control, the T/C (dose: 1.56 mg/kg/injection, schedule: Q01DX009 (ip), vehicle: water) was 147 % of control and the survivor count (dose: 25.0 mg/kg/injection, schedule: Q01DX009 (ip), vehicle: water) was 10 of 10.

`Cc1cc(NC(=O)NCc2ccc(N3C(N)=NC(N)=NC3(C)C)cc2)ccc1S(=O)(=O)F` was tested, and the T/C (dose: 100.0 mg/kg/injection, schedule: Q04DX003 (ip), vehicle: saline) was 127 % of control and the T/C (dose: 200.0 mg/kg/injection, schedule: Q04DX003 (ip), vehicle: saline) was 127 % of control.

`CN(C)N=Nc1c(Cl)cc(Cl)cc1C(N)=O` was tested, and the T/C [5] was 128 % of control.

In the case of `Nc1ncnc2c1c1c(=O)[nH]cnc1n2C1OC(CO)C(O)C1O` (configuration not stated), the survivor count [6] was 10 of 10, the survivor count [7] was 10 of 10 and the survivor count [2] was 10 of 10.

With `Cc1ccc(S(=O)(=O)Oc2ccc(-c3ccc(OS(=O)(=O)c4ccc(C)cc4)cc3)cc2)cc1` the survivor count [8] was 10 of 10 and the survivor count [9] was 10 of 10.

In the case of `CCOC(C[Se][Se]CC(OCC)OCC)OCC`, the survivor count (dose: 12.5 mg/kg/injection, schedule: Q01DX009 (ip), vehicle: saline) was 0 of 10.

With `CC(NC(=O)OC(C)(C)C)C(=O)ON1C(=O)CCC1=O` (configuration not stated) the survivor count [8] was 9 of 10 and the survivor count [9] was 7 of 9.

With `CN(C)CCC(=O)c1ccccc1` the survivor count [10] was 7 of 10.

In the case of `CCO/C=C1\SC(=S)N(c2cccc(OC)c2)C1=O`, the T/C [1] was 130 % of control, the survivor count [11] was 10 of 10 and the survivor count [4] was 9 of 10.

In the case of `O=C(Nc1ccc([N+](=O)[O-])cc1)Nc1ccc([N+](=O)[O-])c(C(F)(F)F)c1`, the survivor count [5] was 6 of 6, the survivor count [12] was 6 of 6 and the survivor count [8] was 6 of 6. For the same compound, the survivor count [9] was 3 of 6.

For `c1ccc2cc3c(cc2c1)Cn1c-3nc2ccccc21`, the T/C [13] was 129 % of control, the survivor count (dose: 600.0 mg/kg/injection, schedule: Q01DX009 (ip), vehicle: saline with Tween-80) was 10 of 10 and the survivor count (dose: 900.0 mg/kg/injection, schedule: Q01DX009 (ip), vehicle: saline with Tween-80) was 10 of 10.

With `NC(N)=NC(N)=Nc1ccc(-c2ccc(N=C(N)N=C(N)N)cc2)cc1` the survivor count [14] was 6 of 10.

For `Nc1ccccc1SC1CC(=O)N(c2ccc(Br)cc2Cl)C1=O` (configuration not stated), the survivor count [2] was 10 of 10 and the survivor count [11] was 10 of 10.

With `COc1ccc(CCN2C(=O)CSC2=S)cc1OC` the survivor count [12] was 6 of 6, the survivor count [11] was 9 of 10 and the survivor count [4] was 5 of 10. The survivor count [9] was 10 of 10 and the survivor count (dose: 400.0 mg/kg/injection, schedule: Q04DX003 (ip), vehicle: saline with Tween-80) was 10 of 10.

In the case of `Oc1ccc2ccccc2c1N=Nc1ccc(F)cc1`, the T/C [8] was 140 % of control.

With `Cc1ccccc1CN1CCN(CCOC(c2ccccc2)c2ccccc2Cl)CC1` (configuration not stated) the survivor count [15] was 10 of 10 and the survivor count [1] was 10 of 10.

With `CSc1nc(N)nc2c1ncn2C1OC(CO)C(O)C1O` (configuration not stated) the T/C (dose: 50.0 mg/kg/injection, schedule: Q01DX009 (ip), vehicle: suspension in saline) was 127 % of control and the survivor count (dose: 400.0 mg/kg/injection, schedule: Q01DX009 (ip), vehicle: suspension in saline) was 2 of 10.

`C=C1C(=O)OCC2C(C(=O)O)=CC3C(C)C(C)=CC123` (configuration not stated) was tested, and the survivor count (dose: 80.0 mg/kg/injection, schedule: Q01DX009 (ip), vehicle: Klucel (hydroxypropylcellulose) (HPC)) was 10 of 10.

With `CC1C2CCC3C(O)C2(CC(O)C2(O)C1CC(O)C2(C)C)CC3(C)O` (configuration not stated) the survivor count (dose: 1.0 mg/kg/injection, schedule: Q01DX009 (ip), vehicle: Klucel (hydroxypropylcellulose) (HPC)) was 6 of 10.

With `N=C(N)SCc1cccc2c(=O)cc(-c3ccccc3)oc12` the survivor count [3] was 6 of 10.

In the case of `O=C(NCCCN1CC1)C(=O)NCCCN1CC1`, the T/C (dose: 0.78 mg/kg/injection, schedule: Q01DX009 (ip), vehicle: saline) was 127 % of control, the survivor count [10] was 0 of 10 and the survivor count [16] was 0 of 10. The survivor count [13] was 0 of 10.

For `Cc1cccc(CN)n1`, the T/C (dose: 200.0 mg/kg/injection, schedule: Q01DX009 (ip), vehicle: saline) was 134 % of control [9 of 10 alive].

With `Cc1ccc([N+](=O)[O-])c(O)c1[N+](=O)[O-]` the survivor count [2] was 10 of 10.

`C=CCNCCN1CCN(CCCN2c3ccccc3Sc3ccc(C(F)(F)F)cc32)CC1` was tested, and the survivor count [10] was 10 of 10, the survivor count (dose: 37.5 mg/kg/injection, schedule: Q04DX003 (ip), vehicle: saline) was 10 of 10 and the survivor count [16] was 10 of 10. For the same compound, the survivor count (dose: 85.0 mg/kg/injection, schedule: Q04DX003 (ip), vehicle: saline) was 6 of 10 and the survivor count (dose: 125.0 mg/kg/injection, schedule: Q04DX003 (ip), vehicle: saline) was 0 of 10.

In the case of `ClCCN(CCCl)CCCN1c2ccccc2Sc2ccccc21`, the T/C (dose: 12.5 mg/kg/injection, schedule: Q04DX003 (ip), vehicle: saline with Tween-80) was 128 % of control, the T/C (dose: 25.0 mg/kg/injection, schedule: Q04DX003 (ip), vehicle: saline with Tween-80) was 125 % of control and the survivor count (dose: 50.0 mg/kg/injection, schedule: Q04DX003 (ip), vehicle: saline with Tween-80) was 9 of 10.

`Cc1cc(NCCCCCCCNc2cc(C)nc3cc(N)ccc23)c2ccc(N)cc2n1` was tested, and the survivor count [14] was 8 of 10.

For `C[CH2][Pb]([CH2]C)([CH2]C)[N]1C(=O)c2ccccc2C1=O`, the survivor count [15] was 10 of 10, the survivor count [6] was 0 of 10 and the survivor count [7] was 0 of 10.

With `N#CCN1CCCN(CC#N)C1` the survivor count (dose: 150.0 mg/kg/injection, schedule: Q01DX009 (ip), vehicle: Klucel (hydroxypropylcellulose) (HPC)) was 6 of 10 and the survivor count (dose: 300.0 mg/kg/injection, schedule: Q01DX009 (ip), vehicle: Klucel (hydroxypropylcellulose) (HPC)) was 0 of 10.

`C[n+]1ccc(Nc2ccc(NC(=O)c3ccc(Nc4cc[n+](C)c5ccc([N+](=O)[O-])cc45)cc3[N+](=O)[O-])cc2)cc1` was tested, and the survivor count [5] was 10 of 10, the survivor count [12] was 10 of 10 and the survivor count [8] was 6 of 10. The survivor count [9] was 0 of 10.

In the case of `COc1ccc2[nH]c3ccc4cc[n+](CCN5CCC(C6CCN(CC[n+]7ccc8ccc9[nH]c%10ccc(OC)cc%10c9c8c7)CC6)CC5)cc4c3c2c1`, the survivor count [11] was 10 of 10.
